The other results are listed elsewhere or left out.
How the values were obtained:
Assay in all cases: log2 fold change, soluble protein after heating vs DMSO (PISA); higher = thermal stabilisation; K562 cells, 10 uM, 30 min; active = over 0.2 and 3.5 SD of the protein, either way, in both replicates (recomputed)
[1] = compound: NC(=O)Nc1cc(-c2cccc(F)c2)sc1C(=O)N[C@H]1CCCNC1
Summary of the method: (§1)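 Quantification of soluble protein used TMTpro 16plex LC-MS/MS, with channel sums equalised. Samples were the supernatant after 21,000xg for 90 min of pooled aliquots from K562 cells (2×10^6 cells/mL) treated with 10 μM compound for 30 min, heated for 3 min over 48°C-58°C, and extracted in PBS with 0.5% NP-40 at 4°C. Values, from duplicates, describe thermal stability against control samples on a log2 fold-change scale.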

By UniProt entry, the sequences of proteins in these tests, tags left out. Where a name states a change or a piece, a line headed by the entry shows the natural chain unless it says otherwise.
UniProt Q5VZM2, whole entry, looked up: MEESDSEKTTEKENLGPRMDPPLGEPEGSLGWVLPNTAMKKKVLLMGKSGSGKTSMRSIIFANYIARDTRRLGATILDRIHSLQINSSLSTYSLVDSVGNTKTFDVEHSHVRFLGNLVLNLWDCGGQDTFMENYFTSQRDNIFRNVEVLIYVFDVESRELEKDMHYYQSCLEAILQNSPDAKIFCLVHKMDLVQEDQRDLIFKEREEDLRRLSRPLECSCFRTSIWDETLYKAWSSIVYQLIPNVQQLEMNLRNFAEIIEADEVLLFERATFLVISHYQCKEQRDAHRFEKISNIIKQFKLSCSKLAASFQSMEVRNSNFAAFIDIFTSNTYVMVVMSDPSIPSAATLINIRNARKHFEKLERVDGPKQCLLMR
UniProt P05386, whole entry, looked up: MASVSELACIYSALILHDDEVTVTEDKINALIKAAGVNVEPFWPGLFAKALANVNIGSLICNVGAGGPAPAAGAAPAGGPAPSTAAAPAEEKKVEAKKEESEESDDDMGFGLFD
UniProt O43148, whole entry, looked up: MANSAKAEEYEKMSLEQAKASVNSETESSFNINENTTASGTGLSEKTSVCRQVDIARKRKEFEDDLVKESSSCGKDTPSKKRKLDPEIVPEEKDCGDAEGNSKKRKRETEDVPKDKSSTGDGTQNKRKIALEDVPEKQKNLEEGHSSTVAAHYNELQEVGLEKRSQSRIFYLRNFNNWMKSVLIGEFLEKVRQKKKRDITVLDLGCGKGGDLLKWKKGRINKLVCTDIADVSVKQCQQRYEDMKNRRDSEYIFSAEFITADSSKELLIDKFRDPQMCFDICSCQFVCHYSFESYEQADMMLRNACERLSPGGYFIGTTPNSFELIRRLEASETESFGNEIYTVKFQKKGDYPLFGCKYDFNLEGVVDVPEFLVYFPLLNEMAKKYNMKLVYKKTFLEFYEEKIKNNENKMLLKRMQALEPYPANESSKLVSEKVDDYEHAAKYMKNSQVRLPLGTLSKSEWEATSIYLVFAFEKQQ
UniProt O60942: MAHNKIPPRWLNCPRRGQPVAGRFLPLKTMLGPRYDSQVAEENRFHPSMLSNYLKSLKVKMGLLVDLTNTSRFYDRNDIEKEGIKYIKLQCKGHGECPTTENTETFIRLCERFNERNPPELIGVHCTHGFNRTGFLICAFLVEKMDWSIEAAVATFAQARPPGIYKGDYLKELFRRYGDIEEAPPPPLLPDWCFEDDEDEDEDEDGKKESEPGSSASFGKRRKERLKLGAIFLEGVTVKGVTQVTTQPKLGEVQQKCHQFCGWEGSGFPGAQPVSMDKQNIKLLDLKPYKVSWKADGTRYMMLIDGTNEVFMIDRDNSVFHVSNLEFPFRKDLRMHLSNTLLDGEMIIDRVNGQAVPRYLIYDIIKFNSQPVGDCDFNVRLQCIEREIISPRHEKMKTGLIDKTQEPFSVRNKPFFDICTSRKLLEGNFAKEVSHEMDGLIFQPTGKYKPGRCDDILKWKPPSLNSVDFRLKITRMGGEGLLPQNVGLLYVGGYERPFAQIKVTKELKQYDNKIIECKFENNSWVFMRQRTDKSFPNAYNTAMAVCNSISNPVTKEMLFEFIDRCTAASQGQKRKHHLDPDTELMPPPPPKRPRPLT
UniProt P15927: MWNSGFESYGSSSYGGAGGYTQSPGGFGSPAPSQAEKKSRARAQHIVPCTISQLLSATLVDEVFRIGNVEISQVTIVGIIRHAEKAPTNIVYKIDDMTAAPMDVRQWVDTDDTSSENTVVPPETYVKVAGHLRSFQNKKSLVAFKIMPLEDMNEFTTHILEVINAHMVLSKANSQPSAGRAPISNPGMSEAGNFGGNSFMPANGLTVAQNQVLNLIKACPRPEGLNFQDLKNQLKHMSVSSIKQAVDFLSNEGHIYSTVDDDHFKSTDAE
UniProt Q15349, whole entry, looked up: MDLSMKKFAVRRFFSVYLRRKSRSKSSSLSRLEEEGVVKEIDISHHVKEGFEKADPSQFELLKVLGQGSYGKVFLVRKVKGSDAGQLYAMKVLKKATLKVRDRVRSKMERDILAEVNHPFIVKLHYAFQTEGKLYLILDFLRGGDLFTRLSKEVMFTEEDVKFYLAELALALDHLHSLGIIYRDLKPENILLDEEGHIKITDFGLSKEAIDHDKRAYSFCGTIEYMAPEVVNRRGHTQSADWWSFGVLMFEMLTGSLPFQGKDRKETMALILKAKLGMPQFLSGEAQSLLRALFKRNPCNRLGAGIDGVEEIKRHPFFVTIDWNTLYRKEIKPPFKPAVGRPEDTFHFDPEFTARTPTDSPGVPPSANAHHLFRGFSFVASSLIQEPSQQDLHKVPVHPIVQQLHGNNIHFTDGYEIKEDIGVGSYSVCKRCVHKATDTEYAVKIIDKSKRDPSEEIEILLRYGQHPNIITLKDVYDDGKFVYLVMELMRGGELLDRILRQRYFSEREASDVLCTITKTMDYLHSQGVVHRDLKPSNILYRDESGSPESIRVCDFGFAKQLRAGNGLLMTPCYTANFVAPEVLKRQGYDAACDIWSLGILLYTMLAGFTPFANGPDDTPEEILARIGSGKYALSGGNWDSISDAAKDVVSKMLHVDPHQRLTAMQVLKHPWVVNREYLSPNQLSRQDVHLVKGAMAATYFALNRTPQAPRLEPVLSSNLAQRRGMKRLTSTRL
UniProt Q9BUL9: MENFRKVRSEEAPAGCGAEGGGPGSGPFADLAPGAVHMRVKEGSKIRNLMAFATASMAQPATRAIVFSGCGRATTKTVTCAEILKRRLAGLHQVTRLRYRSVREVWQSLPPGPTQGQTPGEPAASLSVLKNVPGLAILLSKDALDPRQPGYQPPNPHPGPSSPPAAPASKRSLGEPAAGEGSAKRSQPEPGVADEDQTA
UniProt P31350, whole entry, looked up: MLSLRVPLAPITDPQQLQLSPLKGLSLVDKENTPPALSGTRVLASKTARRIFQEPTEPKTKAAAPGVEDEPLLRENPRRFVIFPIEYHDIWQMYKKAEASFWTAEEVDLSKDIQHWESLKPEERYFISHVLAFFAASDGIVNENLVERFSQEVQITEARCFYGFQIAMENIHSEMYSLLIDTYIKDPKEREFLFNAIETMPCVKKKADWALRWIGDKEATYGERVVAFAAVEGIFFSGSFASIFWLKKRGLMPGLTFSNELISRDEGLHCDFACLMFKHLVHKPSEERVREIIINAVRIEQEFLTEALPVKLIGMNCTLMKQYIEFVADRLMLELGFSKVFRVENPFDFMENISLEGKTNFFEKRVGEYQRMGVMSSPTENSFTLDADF
UniProt P49247: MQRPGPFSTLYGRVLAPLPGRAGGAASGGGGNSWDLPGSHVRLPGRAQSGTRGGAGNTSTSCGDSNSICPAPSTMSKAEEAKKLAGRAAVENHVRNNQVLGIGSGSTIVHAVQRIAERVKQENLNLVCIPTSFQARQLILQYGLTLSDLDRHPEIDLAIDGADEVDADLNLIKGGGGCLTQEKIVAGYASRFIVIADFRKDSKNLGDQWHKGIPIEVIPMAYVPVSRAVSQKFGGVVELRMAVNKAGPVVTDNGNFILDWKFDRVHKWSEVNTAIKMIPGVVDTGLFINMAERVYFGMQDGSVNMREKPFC
UniProt Q8IZ73: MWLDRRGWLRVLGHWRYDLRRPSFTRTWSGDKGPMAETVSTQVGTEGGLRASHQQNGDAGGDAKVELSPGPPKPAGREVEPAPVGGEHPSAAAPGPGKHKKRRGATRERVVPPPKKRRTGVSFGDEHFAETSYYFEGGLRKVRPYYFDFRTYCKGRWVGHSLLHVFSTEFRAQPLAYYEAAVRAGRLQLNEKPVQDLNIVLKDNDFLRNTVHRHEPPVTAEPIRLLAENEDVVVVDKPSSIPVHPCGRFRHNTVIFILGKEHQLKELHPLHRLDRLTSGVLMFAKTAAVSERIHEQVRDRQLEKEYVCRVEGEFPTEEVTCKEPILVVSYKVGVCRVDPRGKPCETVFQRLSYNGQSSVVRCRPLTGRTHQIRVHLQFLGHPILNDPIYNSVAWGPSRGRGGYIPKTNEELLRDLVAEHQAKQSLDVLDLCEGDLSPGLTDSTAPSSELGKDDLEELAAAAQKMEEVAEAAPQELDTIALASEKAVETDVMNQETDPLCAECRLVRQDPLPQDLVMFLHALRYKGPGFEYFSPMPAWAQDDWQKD
UniProt P23921: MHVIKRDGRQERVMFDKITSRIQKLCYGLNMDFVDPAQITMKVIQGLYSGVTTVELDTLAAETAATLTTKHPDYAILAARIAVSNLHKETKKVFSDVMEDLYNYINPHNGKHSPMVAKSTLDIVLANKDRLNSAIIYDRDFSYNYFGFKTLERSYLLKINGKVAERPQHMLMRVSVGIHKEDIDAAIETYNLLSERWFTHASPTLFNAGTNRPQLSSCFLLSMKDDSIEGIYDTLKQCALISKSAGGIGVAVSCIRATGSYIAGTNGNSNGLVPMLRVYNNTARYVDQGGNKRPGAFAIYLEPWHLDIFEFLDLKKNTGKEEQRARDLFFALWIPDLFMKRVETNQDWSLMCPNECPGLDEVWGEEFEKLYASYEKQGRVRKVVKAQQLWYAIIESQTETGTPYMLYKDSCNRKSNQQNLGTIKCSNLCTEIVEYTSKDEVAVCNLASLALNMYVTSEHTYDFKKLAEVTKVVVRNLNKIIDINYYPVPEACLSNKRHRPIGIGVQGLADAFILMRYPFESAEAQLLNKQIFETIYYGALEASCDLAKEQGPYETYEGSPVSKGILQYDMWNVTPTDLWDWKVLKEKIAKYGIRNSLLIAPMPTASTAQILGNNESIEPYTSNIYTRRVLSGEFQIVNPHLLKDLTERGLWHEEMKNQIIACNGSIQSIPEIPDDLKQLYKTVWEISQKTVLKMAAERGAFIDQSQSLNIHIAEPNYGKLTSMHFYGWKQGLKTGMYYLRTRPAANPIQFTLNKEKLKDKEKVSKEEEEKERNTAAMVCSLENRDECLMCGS
UniProt Q7L523, whole entry, looked up: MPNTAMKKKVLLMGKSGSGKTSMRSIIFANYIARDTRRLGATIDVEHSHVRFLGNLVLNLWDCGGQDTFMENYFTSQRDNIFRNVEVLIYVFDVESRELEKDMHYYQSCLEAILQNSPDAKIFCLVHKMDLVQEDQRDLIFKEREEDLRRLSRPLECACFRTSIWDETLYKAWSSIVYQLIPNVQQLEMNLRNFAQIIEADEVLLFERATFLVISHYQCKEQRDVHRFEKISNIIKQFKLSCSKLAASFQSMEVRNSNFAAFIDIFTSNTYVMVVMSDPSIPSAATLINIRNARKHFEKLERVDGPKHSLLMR
UniProt O75818: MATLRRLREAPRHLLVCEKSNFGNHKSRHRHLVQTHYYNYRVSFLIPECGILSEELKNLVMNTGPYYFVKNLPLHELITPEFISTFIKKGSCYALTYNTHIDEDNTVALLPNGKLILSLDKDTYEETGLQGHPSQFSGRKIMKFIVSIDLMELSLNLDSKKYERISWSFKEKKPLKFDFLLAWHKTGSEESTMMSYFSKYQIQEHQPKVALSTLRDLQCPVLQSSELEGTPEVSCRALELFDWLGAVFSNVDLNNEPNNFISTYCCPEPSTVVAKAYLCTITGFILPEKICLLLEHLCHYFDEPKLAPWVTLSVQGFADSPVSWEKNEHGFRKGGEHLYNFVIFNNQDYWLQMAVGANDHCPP

[2] = compound: NC(=O)c1cnc(N[C@@H]2CCCC[C@@H]2N)nc1Nc1cccc(-n2nccn2)c1
Summary of the method: as §1

[3] = compound: NC1(c2ccc(-c3nc4ccn5c(=O)[nH]nc5c4cc3-c3ccccc3)cc2)CCC1
Summary of the method: as §1

[4] = compound: NCC(=O)Nc1ccc(-n2nc(C(F)(F)F)cc2-c2ccc3c(ccc4ccccc43)c2)cc1
Summary of the method: as §1

[5] = compound: Nc1ccccc1NC(=O)c1ccc(CNC(=O)OCc2cccnc2)cc1 [entinostat]
Summary of the method: as §1

[6] = compound: O=C(CCCCCCC(=O)Nc1ccccc1)NO [vorinostat]
Summary of the method: as §1

[7] = compound: O=C(CCCCCCNC(=O)c1cnc(N(c2ccccc2)c2ccccc2Cl)nc1)NO [citarinostat]
Summary of the method: as §1

[8] = compound: O=C(O)c1ccc2c(c1)nc(Nc1cccc(Cl)c1)c1ccncc12 [silmitasertib]
Summary of the method: as §1

[9] = compound: O=C1NC(=O)C(c2cnc3ccccn23)=C1c1cn2c3c(cc(F)cc13)CN(C(=O)N1CCCCC1)CC2
Summary of the method: as §1

[10] = compound: c1cc(OCCN2CCCCC2)cc(-c2n[nH]c3ccc(-c4nnc[nH]4)cc23)c1
Summary of the method: as §1

[11] = compound: c1cn2cc(-c3ccc4cn[nH]c4c3)nc(Nc3ccc(N4CCOCC4)cc3)c2n1 [entospletinib]
Summary of the method: as §1

Target	log2 fold change [1]	log2 fold change [2]	log2 fold change [3]	log2 fold change [4]	log2 fold change [5]	log2 fold change [6]	log2 fold change [7]	log2 fold change [8]	log2 fold change [9]	log2 fold change [10]	log2 fold change [11]
RPS4X (UniProt P62701)	inactive: 0.088	inactive: 0.095	inactive: 0.216	inactive: 0.088	inactive: -0.048	inactive: 0.005	inactive: -0.104	inactive: 0.014	inactive: 0.126	inactive: -0.204	–
RRAGB (UniProt Q5VZM2)	inactive: 0.112	inactive: -0.017	active: -0.317	inactive: 0.023	inactive: 0.012	inactive: 0.018	inactive: -0.006	inactive: 0.031	inactive: 0.008	inactive: 0.05	–
RPL7A (UniProt P62424)	inactive: 0.222	inactive: 0.183	inactive: 0.495	inactive: 0.341	inactive: -0.142	inactive: -0.039	inactive: -0.198	inactive: 0.2	inactive: 0.228	inactive: -0.281	inactive: 0.198
RPLP1 (UniProt P05386)	inactive: 0.086	inactive: 0.286	inactive: 0.443	inactive: 0.179	inactive: -0.128	inactive: -0.104	inactive: -0.23	inactive: 0.229	inactive: 0.094	inactive: -0.531	inactive: 0.172
RNMT isoform 2 (UniProt O43148)	inactive: 0.01	inactive: -0.034	inactive: 0.095	inactive: -0.092	inactive: -0.05	inactive: 0.006	inactive: -0.021	inactive: 0.023	inactive: 0.038	inactive: -0.075	inactive: 0.017
RPL15 (UniProt P61313)	inactive: 0.189	inactive: 0.167	inactive: 0.48	inactive: 0.358	inactive: -0.143	inactive: -0.038	inactive: -0.223	inactive: 0.203	inactive: 0.262	inactive: -0.408	inactive: 0.111
RNGTT (UniProt O60942)	inactive: -0.002	inactive: -0.076	inactive: -0.086	inactive: -0.084	inactive: 0.041	inactive: -0.082	inactive: 0.099	inactive: 0.013	inactive: 0.026	inactive: 0.014	inactive: -0.073
RPL4 (UniProt P36578)	inactive: 0.266	inactive: 0.204	inactive: 0.474	inactive: 0.341	inactive: -0.125	inactive: -0.028	inactive: -0.209	inactive: 0.214	inactive: 0.323	inactive: -0.275	inactive: 0.109
RPA2 isoform 3 (UniProt P15927)	inactive: -0.139	inactive: -0.08	inactive: -0.027	inactive: -0.084	inactive: 0.003	inactive: 0.06	inactive: 0.053	inactive: -0.014	inactive: -0.121	inactive: -0.055	inactive: -0.026
RPL23A (UniProt P62750)	inactive: 0.151	inactive: 0.146	inactive: 0.344	inactive: 0.182	inactive: -0.072	inactive: -0.008	inactive: -0.112	inactive: 0.078	inactive: 0.153	inactive: -0.151	inactive: 0.042
RPS6KA2 isoform 2 (UniProt Q15349)	inactive: -0.129	inactive: -0.256	inactive: -0.269	inactive: -0.035	inactive: 0.067	inactive: 0.122	inactive: 0.106	inactive: -0.044	inactive: -0.056	inactive: -0.295	–
RPP25 (UniProt Q9BUL9)	inactive: -0.046	inactive: 0.034	inactive: 0.106	inactive: 0.058	inactive: -0.043	inactive: 0.039	inactive: -0.014	inactive: 0.02	inactive: 0.04	inactive: -0.081	inactive: 0.159
RRM2 isoform 2 (UniProt P31350)	inactive: 0.027	inactive: 0.055	inactive: -0.046	inactive: 0.056	inactive: -0.01	inactive: 0.009	inactive: 0.019	inactive: -0.001	inactive: -0.006	inactive: -0.033	inactive: 0.017
RPL35 (UniProt P42766)	inactive: 0.167	inactive: 0.039	inactive: 0.338	inactive: 0.127	inactive: -0.103	inactive: 0.043	inactive: -0.152	inactive: 0.09	inactive: 0.169	inactive: -0.236	inactive: 0.116
RPL13 (UniProt P26373)	inactive: 0.205	inactive: 0.104	inactive: 0.443	inactive: 0.241	inactive: -0.082	inactive: 0	inactive: -0.219	inactive: 0.21	inactive: 0.248	inactive: -0.301	inactive: 0.138
RPS27L (UniProt Q71UM5)	inactive: 0.02	inactive: 0.05	inactive: 0.054	inactive: 0.048	inactive: -0.023	inactive: 0.107	inactive: -0.026	inactive: 0.005	inactive: 0.085	inactive: -0.109	inactive: 0.102
RPL24 (UniProt P83731)	inactive: 0.207	inactive: 0.219	inactive: 0.329	inactive: 0.205	inactive: -0.022	inactive: -0.031	inactive: -0.124	inactive: 0.087	inactive: 0.143	inactive: -0.173	inactive: 0.077
RPL14 (UniProt P50914)	inactive: 0.252	inactive: 0.168	inactive: 0.408	inactive: 0.383	inactive: -0.127	inactive: 0.017	inactive: -0.214	inactive: 0.162	inactive: 0.33	inactive: -0.29	inactive: 0.203
RPLP0 (UniProt P05388)	inactive: 0.123	inactive: 0.127	inactive: 0.441	inactive: 0.293	inactive: -0.159	inactive: -0.021	inactive: -0.185	inactive: 0.196	inactive: 0.308	inactive: -0.31	inactive: 0.08
RPIA (UniProt P49247)	inactive: -0.02	inactive: 0	inactive: -0.047	inactive: -0.009	inactive: -0.009	inactive: -0.063	inactive: 0.003	inactive: -0.028	inactive: -0.02	inactive: 0.009	inactive: -0.012
RPS28 (UniProt P62857)	inactive: -0.017	inactive: 0	inactive: 0.132	inactive: 0.051	inactive: -0.06	inactive: -0.022	inactive: -0.086	inactive: 0.003	inactive: 0.073	inactive: 0.168	inactive: 0.1
RPUSD2 (UniProt Q8IZ73)	inactive: 0.003	inactive: -0.006	inactive: 0.026	inactive: 0.01	inactive: -0.004	inactive: 0.012	inactive: 0.011	inactive: -0.055	inactive: -0.027	inactive: -0.025	inactive: 0.011
RPL18 (UniProt Q07020)	inactive: 0.208	inactive: 0.186	inactive: 0.565	inactive: 0.352	inactive: -0.09	inactive: -0.012	inactive: -0.201	inactive: 0.184	inactive: 0.297	inactive: -0.281	inactive: 0.145
RPL23 (UniProt P62829)	inactive: 0.042	inactive: 0.111	inactive: 0.222	inactive: 0.094	inactive: -0.008	inactive: 0.004	inactive: -0.105	inactive: 0.042	inactive: 0.107	inactive: -0.201	inactive: 0.108
RRM1 (UniProt P23921)	inactive: -0.005	inactive: 0.016	inactive: -0.067	inactive: 0.019	inactive: -0.028	inactive: 0.021	inactive: 0.025	inactive: -0.012	inactive: -0.064	inactive: -0.035	inactive: -0.003
RRAGA (UniProt Q7L523)	inactive: -0.002	inactive: 0.138	inactive: -0.209	inactive: 0.232	inactive: -0.076	inactive: -0.014	inactive: 0.029	inactive: 0.075	inactive: 0.033	inactive: -0.073	inactive: 0.083
RPP40 (UniProt O75818)	inactive: -0.004	inactive: -0.061	inactive: -0.004	inactive: 0.048	inactive: -0.058	inactive: -0.064	inactive: 0	inactive: 0.019	inactive: 0.076	inactive: -0.145	inactive: 0.066
RPS9 (UniProt P46781)	inactive: 0.07	inactive: 0.127	inactive: 0.202	inactive: 0.073	inactive: -0.058	inactive: -0.007	inactive: -0.058	inactive: 0.007	inactive: 0.076	inactive: -0.152	–

Look-ups from above.
Under log2 fold change [4], RPL14 (UniProt P50914) has inactive: 0.383
Under log2 fold change [1], RPL35 (UniProt P42766) has inactive: 0.167

Some of the entries so far, bar-delimited.
Target | log2 fold change [1] | log2 fold change [2] | log2 fold change [3] | log2 fold change [4] | log2 fold change [5] | log2 fold change [6] | log2 fold change [7] | log2 fold change [8] | log2 fold change [9] | log2 fold change [10] | log2 fold change [11]
RPS28 (UniProt P62857) | inactive: -0.017 | inactive: 0 | inactive: 0.132 | inactive: 0.051 | inactive: -0.06 | inactive: -0.022 | inactive: -0.086 | inactive: 0.003 | inactive: 0.073 | inactive: 0.168 | inactive: 0.1
RPP40 (UniProt O75818) | inactive: -0.004 | inactive: -0.061 | inactive: -0.004 | inactive: 0.048 | inactive: -0.058 | inactive: -0.064 | inactive: 0 | inactive: 0.019 | inactive: 0.076 | inactive: -0.145 | inactive: 0.066

From the supplement of paper PMC10849652
